The series can be described thus: LC-MS-MS of tryptic methionine-containing peptides after H2O2 treatment of intact protein. Details: key to Relative Change (symbols): NQ: Observed in H2O2 treated sample, absent in control sample, so not quantified; NO: Not observed. The following applies: H2O2 treated vs non-treated intact protein; for Relative Change: average ± standard deviation, three replicates.

Consider “STVASMMHR + 2 Oxygen: doubly oxidized form of the STVASMMHR peptide (two added oxygens (methionine oxidation))”, for which the “Relative Change” value turned out to be 115 ± 25.

On to “STVASMMHR + 3 Oxygen: triply oxidized form of the STVASMMHR peptide (three added oxygens (methionine oxidation))”, for which the “Relative Change (symbols)” value is reported as “NQ^b”.

For the sequence “STVASMMHR + 4 Oxygen: STVASMMHR peptide with four added oxygens (four added oxygens (methionine oxidation))”, the “Relative Change (symbols)” value is recorded as “NO^c”.

For STVASMMHR, the “Relative Change” value is reported as 0.36 ± 0.06.

Turning to “STVASMMHR + 1 Oxygen: singly oxidized form of the STVASMMHR peptide (one added oxygen (methionine oxidation))”, the “Relative Change” value was determined as 6.4 ± 1.9.

These data come from US9090701B2, “Methods of detecting oxidized calcium/calmodulin dependent protein kinase II” (University of Iowa Research Foundation, priority 2008, dated 2015).
